These are yes or no findings as the source states them, for the method shown. Some binding calls cover weakened binding; strength is not graded here.
Target: T1, recombinant human eIF4E (human, UniProt P06730 1-217, limits assumed)
T1 construct: also called in vitro translated human eIF4E; eukaryotic initiation factor 4E
Assay: in vitro binding, as retold in the text

The chains behind the UniProt entries cited, without tags or fusion partners.
UniProt P06730: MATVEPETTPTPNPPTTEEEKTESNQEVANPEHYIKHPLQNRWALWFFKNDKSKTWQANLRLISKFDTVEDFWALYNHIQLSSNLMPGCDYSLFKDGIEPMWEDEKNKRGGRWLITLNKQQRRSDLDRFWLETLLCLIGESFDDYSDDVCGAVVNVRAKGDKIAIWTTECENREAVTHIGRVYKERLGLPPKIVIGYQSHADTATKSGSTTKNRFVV

RVRYSRDQLLDLRQIKIWFQNRRMKWKK (N-terminal biotin on an N-terminal betaAla (biotinylated peptides of FIG. 12a)) [wheat eIF4G(62-73)-Penetratin]
binding: binds
